PubChem BioAssay AID1224826 – NIAID, 2016
Here is an unselected part of about 17,000 reagents tested. Over the whole deposit, about 1,110 (6.6%) were called active. 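Active means lowered or raised reporter signal; replicate intensities are raw and not normalised per plate.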 Further read-outs or replicates are left out here.

- Aim: 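Knock-downs that raise or lower Tnf reporter signal after endotoxin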 (primary screen)
- System: RAW264.7 G9 macrophages from mouse bearing reporters for p65 (GFP) and the Tnf promoter (mCherry)
- Reagents: siRNA pool against mouse genes, 100 nM
- Timing: 16 h of LPS stimulation, after 2 days of siRNA transfection
- Conditions: bacterial lipopolysaccharide (Salmonella minnesota R595), 10 ng/ml
- Detection: 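Imaged Tnf reporter mCherry in nuclei, minus background, normalised per plate to the median and expressed as robust z-scores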
- Direction: Tnf reporter robust z-score: higher = stronger Tnf promoter reporter signal after LPS
- Rule for the call: 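a well counts as active at a score of -1.3 or below (Tlr4 knock-down control median) or above 3 (raised signal); controls and wells holding fewer than 50 cells are excluded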
- Calls: active = Tnf reporter clearly lowered or raised; inactive = no clear change in Tnf reporter

How did the screen score Or4k44 (GeneID 258887)?
Tnf reporter robust z-score: -0.44; fewer than 50 cells in well: enough cells in well; call: inactive

What is on record for Acp5 (GeneID 11433)?
Tnf reporter robust z-score: 0.66; fewer than 50 cells in well: enough cells in well; call: inactive

With Tshz3 (GeneID 243931), what was measured?
Tnf reporter robust z-score: -0.88; fewer than 50 cells in well: enough cells in well; call: inactive

For Pfn1 (GeneID 18643), what does the deposit list?
Tnf reporter robust z-score: 0.49; fewer than 50 cells in well: enough cells in well; call: inactive

With Or51h1 (GeneID 259107), what was measured?
fewer than 50 cells in well: fewer than 50 cells per well; well left out of calls; call: inactive

For Gpc4 (GeneID 14735), what does the deposit list?
Tnf reporter robust z-score: -0.35; fewer than 50 cells in well: enough cells in well; call: inactive

For Bub1b (GeneID 12236), how do the results read?
Tnf reporter robust z-score: 1.75; fewer than 50 cells in well: enough cells in well; call: inactive

For Gvin1 (GeneID 74558), what does the deposit list?
Tnf reporter robust z-score: 0.56; fewer than 50 cells in well: enough cells in well; call: inactive

How did the screen score Sh3d19 (GeneID 27059)?
Tnf reporter robust z-score: -0.68; fewer than 50 cells in well: enough cells in well; call: inactive

For Vti1b (GeneID 53612), what does the deposit list?
Tnf reporter robust z-score: 0.66; fewer than 50 cells in well: enough cells in well; call: inactive

Which result is listed for Or4a68 (GeneID 258804)?
Tnf reporter robust z-score: 3.57; fewer than 50 cells in well: enough cells in well; call: active

With Ptprm (GeneID 19274), what was measured?
Tnf reporter robust z-score: 0.33; fewer than 50 cells in well: enough cells in well; call: inactive

What did the screen give for Lrsam1 (GeneID 227738)?
Tnf reporter robust z-score: -1.09; fewer than 50 cells in well: enough cells in well; call: inactive

Which result is listed for Palm (GeneID 18483)?
Tnf reporter robust z-score: -1.5; fewer than 50 cells in well: enough cells in well; call: active

2 entries from above, reformatted:
gene	Tnf reporter robust z-score	fewer than 50 cells in well	call
Tshz3 (GeneID 243931)	-0.88	enough cells in well	inactive
Pfn1 (GeneID 18643)	0.49	enough cells in well	inactive
